{"source": "paper PMC7862700", "note": "The other results are listed elsewhere or left out. The exact form of the protein is not confirmed.", "data": [{"target": "T1, ETS1 (UniProt P14921)", "T1 sequence": "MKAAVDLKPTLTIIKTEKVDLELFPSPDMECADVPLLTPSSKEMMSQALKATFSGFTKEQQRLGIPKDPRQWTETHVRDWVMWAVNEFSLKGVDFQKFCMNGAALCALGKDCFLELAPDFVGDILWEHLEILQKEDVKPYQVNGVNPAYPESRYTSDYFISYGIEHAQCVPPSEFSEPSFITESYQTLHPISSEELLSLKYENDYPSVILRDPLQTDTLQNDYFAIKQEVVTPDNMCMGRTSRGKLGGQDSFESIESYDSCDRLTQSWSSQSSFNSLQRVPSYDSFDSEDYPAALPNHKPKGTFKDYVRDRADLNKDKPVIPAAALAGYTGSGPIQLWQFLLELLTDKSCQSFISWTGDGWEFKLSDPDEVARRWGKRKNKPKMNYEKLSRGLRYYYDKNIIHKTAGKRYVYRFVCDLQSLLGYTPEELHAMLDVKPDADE", "assay": "DAPPL (digital affinity profiling via proximity ligation, sequencing)", "conditions": "10 mM Tris-HCl pH 7.5, 50 mM NaCl, 1 mM DTT, 4% glycerol, room temperature, 30 min; GST-TFs on glutathione beads, 16-mer random dsDNA library, 0.1% …; high values mean tight binding; double strand, one strand shown; scale: fold enrichment (6-mer frequency, TF over GST control)", "values": [{"sequence": "AACGGC", "binding signal": 1.22}, {"sequence": "TTTTAT", "binding signal": 1.37}, {"sequence": "CGCGCC", "binding signal": 1.14}, {"sequence": "CGCGAT", "binding signal": 1.2}, {"sequence": "ATTGGG", "binding signal": 1.28}, {"sequence": "GTTAAG", "binding signal": 1.03}, {"sequence": "GGAAAT", "binding signal": 2.53}, {"sequence": "TCTATT", "binding signal": 1.34}, {"sequence": "TATGCC", "binding signal": 1.15}, {"sequence": "CAAACG", "binding signal": 1}, {"sequence": "ACCTTT", "binding signal": 1.53}, {"sequence": "GTTTGT", "binding signal": 1.01}, {"sequence": "CTTAAT", "binding signal": 1.35}, {"sequence": "TGTAAC", "binding signal": 1.35}, {"sequence": "ACTTCG", "binding signal": 1.3}, {"sequence": "TATTTT", "binding signal": 1.38}, {"sequence": "GAACTT", "binding signal": 1.63}, {"sequence": "ATTCCA", "binding signal": 1.23}, {"sequence": "ATTTCG", "binding signal": 1.25}, {"sequence": "AATATG", "binding signal": 1.15}, {"sequence": "CGGATG", "binding signal": 1.56}, {"sequence": "AAATAG", "binding signal": 1.13}, {"sequence": "CCTATA", "binding signal": 1.36}, {"sequence": "TGATGT", "binding signal": 1.32}, {"sequence": "GAATGT", "binding signal": 1.04}, {"sequence": "ACCGGC", "binding signal": 1.07}, {"sequence": "CAAGAT", "binding signal": 1.13}, {"sequence": "GCGCCC", "binding signal": 1.17}, {"sequence": "CTGTAG", "binding signal": 0.997}, {"sequence": "CCTTAT", "binding signal": 1.58}, {"sequence": "CCTTTG", "binding signal": 1.32}, {"sequence": "CATGCA", "binding signal": 1.01}, {"sequence": "ACTGTA", "binding signal": 0.983}, {"sequence": "ACCCCA", "binding signal": 1.17}, {"sequence": "CCGGTT", "binding signal": 1.87}, {"sequence": "CAAACT", "binding signal": 1.19}, {"sequence": "GCGAAT", "binding signal": 1.01}, {"sequence": "ACTGCC", "binding signal": 1.31}, {"sequence": "CTGGTA", "binding signal": 1.23}, {"sequence": "AACTTT", "binding signal": 1.22}]}]}
